The values below come from ChEMBL document CHEMBL5528049, “Discovery of (4-Pyrazolyl)-2-aminopyrimidines as Potent and Selective Inhibitors of Cyclin-Dependent Kinase 2” (J Med Chem, 2024).

A short description of this data set: Solubility of compound in SGF by HPLC analysis. The note with it: simulated gi fluid.

Converted amounts (≈) assume the structure as drawn. Where only a bound is given, the exact number is not on record here.

A word on the solubility: it is the dissolved amount per volume that the medium holds. Low values mean a poorly soluble substance, high ones a readily soluble substance. On to `CNCc1ccc(-n2cc(-c3nc(NC4CCN(S(C)(=O)=O)CC4)ncc3C#N)cn2)c(Cl)c1`, for which the solubility was 221 µg/mL (≈ 441 µM).

As to `CS(=O)(=O)N1CCC(Nc2ncc(C(F)(F)F)c(-c3cnn(-c4ccc(C#N)cc4Cl)c3)n2)CC1`, the solubility is < 1 µg/mL.
